From the supplement of paper PMC11732987, “Enantioselective OTUD7B fragment discovery through chemoproteomics screening and high-throughput optimisation” (Communications Chemistry, 2025) come the findings set out here.

Protein sequences, listed by entry. Tags and fused reporters are not part of them. Lines headed by an entry give the natural chain unless they say otherwise; changes in a name come on top. Residues count along the entry.
UniProt Q8TAA5, 123-142: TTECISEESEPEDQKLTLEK
UniProt Q96EK6: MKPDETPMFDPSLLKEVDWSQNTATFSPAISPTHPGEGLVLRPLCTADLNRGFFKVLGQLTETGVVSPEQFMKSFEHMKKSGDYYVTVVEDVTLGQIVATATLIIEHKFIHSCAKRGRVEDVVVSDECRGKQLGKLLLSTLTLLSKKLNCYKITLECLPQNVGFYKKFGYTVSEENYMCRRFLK
UniProt Q9H3C7, whole entry, looked up: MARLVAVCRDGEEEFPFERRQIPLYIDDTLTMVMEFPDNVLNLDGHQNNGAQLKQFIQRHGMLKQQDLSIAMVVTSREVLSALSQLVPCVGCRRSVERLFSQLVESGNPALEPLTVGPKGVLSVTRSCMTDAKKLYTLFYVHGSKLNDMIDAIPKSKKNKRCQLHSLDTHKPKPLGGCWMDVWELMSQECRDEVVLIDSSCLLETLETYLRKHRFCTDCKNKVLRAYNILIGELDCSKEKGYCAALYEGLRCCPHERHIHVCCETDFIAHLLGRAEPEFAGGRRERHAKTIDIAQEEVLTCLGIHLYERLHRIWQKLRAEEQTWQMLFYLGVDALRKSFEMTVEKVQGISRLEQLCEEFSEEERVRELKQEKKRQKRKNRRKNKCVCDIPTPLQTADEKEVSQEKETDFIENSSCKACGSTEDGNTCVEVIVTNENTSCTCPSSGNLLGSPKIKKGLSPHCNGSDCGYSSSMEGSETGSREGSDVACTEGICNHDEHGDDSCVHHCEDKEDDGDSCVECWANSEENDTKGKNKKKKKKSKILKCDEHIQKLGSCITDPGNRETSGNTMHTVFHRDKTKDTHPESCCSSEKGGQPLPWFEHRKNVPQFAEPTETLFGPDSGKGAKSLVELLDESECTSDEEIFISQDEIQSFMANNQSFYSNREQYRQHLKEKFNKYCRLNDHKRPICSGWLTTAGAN
UniProt P49840: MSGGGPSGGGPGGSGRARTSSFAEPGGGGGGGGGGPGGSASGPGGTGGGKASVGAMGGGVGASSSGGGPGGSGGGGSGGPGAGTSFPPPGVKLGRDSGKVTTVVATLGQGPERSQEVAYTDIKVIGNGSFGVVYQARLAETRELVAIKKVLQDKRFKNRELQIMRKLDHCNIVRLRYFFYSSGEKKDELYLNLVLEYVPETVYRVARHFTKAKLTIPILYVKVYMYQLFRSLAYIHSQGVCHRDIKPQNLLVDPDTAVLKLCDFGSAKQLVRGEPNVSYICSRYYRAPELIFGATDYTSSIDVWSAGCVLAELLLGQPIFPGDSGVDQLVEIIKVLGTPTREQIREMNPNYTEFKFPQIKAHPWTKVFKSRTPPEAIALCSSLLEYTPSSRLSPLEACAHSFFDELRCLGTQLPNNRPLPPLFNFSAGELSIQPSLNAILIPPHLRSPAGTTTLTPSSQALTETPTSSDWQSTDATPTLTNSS
UniProt Q14687: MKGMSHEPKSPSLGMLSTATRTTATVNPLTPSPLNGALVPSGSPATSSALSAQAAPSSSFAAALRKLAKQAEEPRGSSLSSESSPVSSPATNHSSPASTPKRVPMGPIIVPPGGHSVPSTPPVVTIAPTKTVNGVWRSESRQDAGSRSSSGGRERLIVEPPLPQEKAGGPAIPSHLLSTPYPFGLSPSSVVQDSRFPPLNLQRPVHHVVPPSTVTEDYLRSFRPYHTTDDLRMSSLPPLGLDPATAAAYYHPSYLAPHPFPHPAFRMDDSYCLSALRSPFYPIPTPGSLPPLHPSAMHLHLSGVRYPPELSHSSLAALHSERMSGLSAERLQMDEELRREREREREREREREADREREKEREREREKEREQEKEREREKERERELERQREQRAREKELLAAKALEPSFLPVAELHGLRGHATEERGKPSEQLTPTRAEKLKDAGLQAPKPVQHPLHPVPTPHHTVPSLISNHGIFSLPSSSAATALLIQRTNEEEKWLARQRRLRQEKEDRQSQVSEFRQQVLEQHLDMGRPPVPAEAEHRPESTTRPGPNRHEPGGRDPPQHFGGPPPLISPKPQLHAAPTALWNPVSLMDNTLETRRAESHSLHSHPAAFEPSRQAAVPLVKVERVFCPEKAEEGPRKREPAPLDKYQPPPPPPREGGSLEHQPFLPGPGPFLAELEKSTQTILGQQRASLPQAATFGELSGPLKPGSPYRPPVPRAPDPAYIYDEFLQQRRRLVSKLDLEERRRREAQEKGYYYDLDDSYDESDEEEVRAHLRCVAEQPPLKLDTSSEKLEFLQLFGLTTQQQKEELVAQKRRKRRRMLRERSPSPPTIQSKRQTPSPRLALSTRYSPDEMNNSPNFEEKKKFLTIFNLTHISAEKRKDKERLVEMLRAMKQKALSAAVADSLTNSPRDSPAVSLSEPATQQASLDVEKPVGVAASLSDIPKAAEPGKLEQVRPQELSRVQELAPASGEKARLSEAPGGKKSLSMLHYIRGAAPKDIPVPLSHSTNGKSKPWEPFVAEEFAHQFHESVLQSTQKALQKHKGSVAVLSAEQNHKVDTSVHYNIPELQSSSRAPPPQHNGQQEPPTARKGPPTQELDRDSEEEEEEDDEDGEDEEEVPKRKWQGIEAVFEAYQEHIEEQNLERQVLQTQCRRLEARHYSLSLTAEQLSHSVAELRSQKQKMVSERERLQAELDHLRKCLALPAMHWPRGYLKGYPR
UniProt O75420: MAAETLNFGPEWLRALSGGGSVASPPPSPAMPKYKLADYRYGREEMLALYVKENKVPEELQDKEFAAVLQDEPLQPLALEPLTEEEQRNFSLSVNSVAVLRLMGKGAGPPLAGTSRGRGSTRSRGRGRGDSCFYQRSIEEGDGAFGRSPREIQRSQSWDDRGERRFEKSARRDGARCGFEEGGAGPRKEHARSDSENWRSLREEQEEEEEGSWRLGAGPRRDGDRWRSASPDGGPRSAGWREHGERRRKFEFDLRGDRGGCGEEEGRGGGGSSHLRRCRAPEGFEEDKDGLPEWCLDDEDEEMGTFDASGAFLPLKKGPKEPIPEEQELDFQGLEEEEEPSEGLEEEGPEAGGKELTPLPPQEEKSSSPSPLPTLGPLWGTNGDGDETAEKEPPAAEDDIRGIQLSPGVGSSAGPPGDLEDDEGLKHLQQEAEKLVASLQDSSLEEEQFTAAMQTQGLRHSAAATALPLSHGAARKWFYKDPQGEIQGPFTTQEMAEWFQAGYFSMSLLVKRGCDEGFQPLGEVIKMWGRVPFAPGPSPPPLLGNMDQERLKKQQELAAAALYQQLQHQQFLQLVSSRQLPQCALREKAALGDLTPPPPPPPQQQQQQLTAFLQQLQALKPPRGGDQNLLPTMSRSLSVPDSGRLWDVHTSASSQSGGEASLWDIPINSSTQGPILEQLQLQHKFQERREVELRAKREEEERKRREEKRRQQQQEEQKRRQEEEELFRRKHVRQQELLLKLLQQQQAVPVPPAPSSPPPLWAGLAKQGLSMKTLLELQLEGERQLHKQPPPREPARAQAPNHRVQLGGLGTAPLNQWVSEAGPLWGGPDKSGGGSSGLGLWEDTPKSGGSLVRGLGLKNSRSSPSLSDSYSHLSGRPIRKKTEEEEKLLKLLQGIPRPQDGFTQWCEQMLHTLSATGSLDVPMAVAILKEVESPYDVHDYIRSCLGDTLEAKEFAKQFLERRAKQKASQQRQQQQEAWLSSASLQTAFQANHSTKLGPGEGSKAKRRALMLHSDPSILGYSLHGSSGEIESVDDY
UniProt Q49A26, 241-269: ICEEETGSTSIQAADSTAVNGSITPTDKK
UniProt Q4ZG55: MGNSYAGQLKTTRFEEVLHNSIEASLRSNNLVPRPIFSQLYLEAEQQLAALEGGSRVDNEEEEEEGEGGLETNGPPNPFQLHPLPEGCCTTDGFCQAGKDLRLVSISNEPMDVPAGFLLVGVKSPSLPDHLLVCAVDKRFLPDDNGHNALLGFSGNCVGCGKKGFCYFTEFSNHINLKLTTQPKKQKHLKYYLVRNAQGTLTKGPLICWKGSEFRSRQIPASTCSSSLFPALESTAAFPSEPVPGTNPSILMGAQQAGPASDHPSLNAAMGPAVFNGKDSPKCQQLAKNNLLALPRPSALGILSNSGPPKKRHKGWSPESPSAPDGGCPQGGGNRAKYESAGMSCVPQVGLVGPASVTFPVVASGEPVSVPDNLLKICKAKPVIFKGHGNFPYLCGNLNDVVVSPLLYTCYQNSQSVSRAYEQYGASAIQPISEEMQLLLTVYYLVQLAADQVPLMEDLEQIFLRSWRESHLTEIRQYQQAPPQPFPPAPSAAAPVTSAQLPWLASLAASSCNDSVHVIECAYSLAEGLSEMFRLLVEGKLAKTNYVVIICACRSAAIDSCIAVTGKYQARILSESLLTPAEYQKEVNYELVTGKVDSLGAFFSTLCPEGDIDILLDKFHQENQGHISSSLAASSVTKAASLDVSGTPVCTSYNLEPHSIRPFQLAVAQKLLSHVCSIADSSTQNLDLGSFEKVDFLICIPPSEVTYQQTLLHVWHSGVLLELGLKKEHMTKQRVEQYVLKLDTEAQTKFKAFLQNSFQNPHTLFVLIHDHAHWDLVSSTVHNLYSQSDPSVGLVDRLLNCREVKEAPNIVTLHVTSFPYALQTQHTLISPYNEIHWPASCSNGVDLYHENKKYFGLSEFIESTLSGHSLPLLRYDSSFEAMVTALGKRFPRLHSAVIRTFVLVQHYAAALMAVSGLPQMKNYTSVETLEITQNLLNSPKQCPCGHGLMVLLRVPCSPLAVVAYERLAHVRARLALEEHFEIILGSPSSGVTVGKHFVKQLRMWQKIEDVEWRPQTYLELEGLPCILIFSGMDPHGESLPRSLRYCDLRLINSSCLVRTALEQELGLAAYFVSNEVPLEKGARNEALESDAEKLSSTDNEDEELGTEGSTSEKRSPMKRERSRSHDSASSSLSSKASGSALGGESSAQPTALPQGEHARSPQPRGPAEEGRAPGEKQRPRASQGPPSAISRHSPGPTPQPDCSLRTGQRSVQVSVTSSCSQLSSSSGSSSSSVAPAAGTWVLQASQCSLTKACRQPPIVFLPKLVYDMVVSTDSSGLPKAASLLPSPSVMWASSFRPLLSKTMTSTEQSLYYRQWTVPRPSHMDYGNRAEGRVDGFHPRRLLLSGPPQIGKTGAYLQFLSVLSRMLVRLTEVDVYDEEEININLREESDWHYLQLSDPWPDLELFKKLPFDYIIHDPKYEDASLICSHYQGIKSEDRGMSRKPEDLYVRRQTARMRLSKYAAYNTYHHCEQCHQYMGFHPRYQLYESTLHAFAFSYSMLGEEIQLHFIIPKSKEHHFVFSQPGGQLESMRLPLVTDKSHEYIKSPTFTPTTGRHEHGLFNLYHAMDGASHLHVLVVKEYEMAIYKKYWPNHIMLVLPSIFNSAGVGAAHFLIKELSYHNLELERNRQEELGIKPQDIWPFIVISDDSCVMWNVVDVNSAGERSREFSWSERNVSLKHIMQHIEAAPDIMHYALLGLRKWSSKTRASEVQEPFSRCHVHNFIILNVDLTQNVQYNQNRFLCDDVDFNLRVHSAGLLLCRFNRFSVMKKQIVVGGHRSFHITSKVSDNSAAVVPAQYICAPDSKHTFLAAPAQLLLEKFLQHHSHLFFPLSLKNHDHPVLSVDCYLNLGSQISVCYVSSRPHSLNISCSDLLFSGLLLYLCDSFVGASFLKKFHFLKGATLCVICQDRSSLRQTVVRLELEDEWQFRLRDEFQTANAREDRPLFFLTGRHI
UniProt Q17RS7: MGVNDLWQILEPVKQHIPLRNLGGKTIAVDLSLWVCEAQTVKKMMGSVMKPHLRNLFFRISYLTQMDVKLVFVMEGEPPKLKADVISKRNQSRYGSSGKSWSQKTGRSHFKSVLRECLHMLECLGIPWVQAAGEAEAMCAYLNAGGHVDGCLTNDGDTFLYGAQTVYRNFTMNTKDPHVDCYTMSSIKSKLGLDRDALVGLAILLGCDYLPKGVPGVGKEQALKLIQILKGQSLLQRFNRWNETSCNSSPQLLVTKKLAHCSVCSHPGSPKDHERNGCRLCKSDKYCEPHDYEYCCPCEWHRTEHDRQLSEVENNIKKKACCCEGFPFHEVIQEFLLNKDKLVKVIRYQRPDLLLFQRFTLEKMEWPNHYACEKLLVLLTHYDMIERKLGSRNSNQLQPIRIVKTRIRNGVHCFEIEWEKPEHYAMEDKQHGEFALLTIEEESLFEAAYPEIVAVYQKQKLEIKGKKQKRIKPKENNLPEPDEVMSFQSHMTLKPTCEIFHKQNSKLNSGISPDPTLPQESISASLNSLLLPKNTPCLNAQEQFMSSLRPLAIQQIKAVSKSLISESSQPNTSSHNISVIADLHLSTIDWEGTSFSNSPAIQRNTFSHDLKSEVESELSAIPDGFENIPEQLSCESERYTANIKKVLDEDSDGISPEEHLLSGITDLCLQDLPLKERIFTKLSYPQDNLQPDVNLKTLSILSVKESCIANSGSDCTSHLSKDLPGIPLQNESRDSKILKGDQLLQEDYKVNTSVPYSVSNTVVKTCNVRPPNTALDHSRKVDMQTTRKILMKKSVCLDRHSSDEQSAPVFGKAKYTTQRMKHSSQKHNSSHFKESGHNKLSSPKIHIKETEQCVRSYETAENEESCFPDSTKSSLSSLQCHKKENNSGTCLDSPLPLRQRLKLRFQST

This is one part of the list. The data scatter; read single values as rough.

Compound in the first assay: ClCC(=O)N[C@H]1CCCc2ccccc12
In words: log2 mean competition ratio of IA-DTB cysteine labelling (DMSO/compound) (log2 ratio); higher = stronger cysteine engagement by compound. The following applies: 50 µM; treatment time: 4 h; cell line lysate: HEK293T. How it is done:
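IA-DTB competitive cysteine chemoproteomics in HEK293T RIPA lysate. Lysates were treated with compound 29 or 30 at 50 or 200 µM for 4 h, then IA-DTB (500 µM, 1 h), trypsin-digested, NeutrAvidin-enriched and analysed by diaPASEF. Competition ratio = intensity DMSO / intensity compound (n=4 treated, n=64 DMSO); binding: mean log2 CR ≥ 1 and p ≤ 0.05 plus QC filters. Target is the cysteine site.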
In the case of GBF1 C661 (UniProt Q92538), the “log2 mean competition ratio” value is -0.49.
Still for that read-out and setting: the result for GEMIN5 C441 (UniProt Q8TEQ6) reads 0.0527; that for GRPEL2 C87 (UniProt Q8TAA5), 0.17; that for GGCX C99 (UniProt P38435), 0.123.
As to GRPEL2 C126 (UniProt Q8TAA5), the “log2 mean competition ratio” value was -0.0128.
On the same count and under the same terms, the result for GOLGA4 C1269 (UniProt Q13439) reads -0.136; that for GNPNAT1 C128 (UniProt Q96EK6), 0.065; that for GGNBP2 C544 (UniProt Q9H3C7), 0.482.
On the same count and under the same terms, the same measure for GK;GK3P C421;(C415): -0.309; for GSK3A C241 (UniProt P49840): 0.282.
On the same count and under the same terms, the result for GSE1 C1151 (UniProt Q14687) reads 0.0365; that for GIGYF1 C583 (UniProt O75420), 0.641; that for GOLGA3 C455 (UniProt Q08378), 0.0788.
Consider GLDC C250 (UniProt P23378), for which the “log2 mean competition ratio” value was -0.242.
The same measure, in the same setting: the result for GPC1 C343 (UniProt P35052) reads 0.145.
As to GSPT2 C582 (UniProt Q8IYD1), the “log2 mean competition ratio” value came out at 0.242.
Same read-out and setting: the result for GLYR1 C242 (UniProt Q49A26) reads -0.292; that for GREB1 C1202 (UniProt Q4ZG55), 0.175.
GCN1 C932 (UniProt Q92616): the “log2 mean competition ratio” value was -0.215.
On the same count and under the same terms, the result for GEN1 C880 (UniProt Q17RS7) reads 0.695.

Staying with this assay, now noted: 200 µM; treatment time: 4 h; cell line lysate: HEK293T.
With GBF1 C661 (UniProt Q92538), the “log2 mean competition ratio” value was -0.0442.
With GEMIN5 C441 (UniProt Q8TEQ6), the “log2 mean competition ratio” value is -0.196.
Same read-out and setting: the result for GRPEL2 C87 (UniProt Q8TAA5) reads 0.171; that for GGCX C99 (UniProt P38435), 0.0789.
Same read-out and setting: the result for GRPEL2 C126 (UniProt Q8TAA5) reads -0.22.
On the same count and under the same terms, the same measure for GOLGA4 C1269 (UniProt Q13439): -0.0625; for GNPNAT1 C128 (UniProt Q96EK6): 0.104; for GGNBP2 C544 (UniProt Q9H3C7): 0.177.
GK;GK3P C421;(C415): the “log2 mean competition ratio” value was -0.159.
Same read-out and setting: the result for GSK3A C241 (UniProt P49840) reads -0.168; that for GSE1 C1151 (UniProt Q14687), 0.245.
The same measure, in the same setting: the same measure for GIGYF1 C583 (UniProt O75420): 0.634; for GOLGA3 C455 (UniProt Q08378): -0.137; for GLDC C250 (UniProt P23378): 0.0701.
Consider GPC1 C343 (UniProt P35052), for which the “log2 mean competition ratio” value came to 0.299.
For the target GSPT2 C582 (UniProt Q8IYD1), the “log2 mean competition ratio” value is -0.0729.
Same read-out and setting: the same measure for GLYR1 C242 (UniProt Q49A26): -0.501; for GREB1 C1202 (UniProt Q4ZG55): -0.141; for GCN1 C932 (UniProt Q92616): 0.229.
The same measure, in the same setting: the result for GEN1 C880 (UniProt Q17RS7) reads -0.0207.
